Consider 6 substances from publication PMC4558493.

Sequences of proteins named here, by UniProt entry; tags and fusion partners are left off.
UniProt Q06831: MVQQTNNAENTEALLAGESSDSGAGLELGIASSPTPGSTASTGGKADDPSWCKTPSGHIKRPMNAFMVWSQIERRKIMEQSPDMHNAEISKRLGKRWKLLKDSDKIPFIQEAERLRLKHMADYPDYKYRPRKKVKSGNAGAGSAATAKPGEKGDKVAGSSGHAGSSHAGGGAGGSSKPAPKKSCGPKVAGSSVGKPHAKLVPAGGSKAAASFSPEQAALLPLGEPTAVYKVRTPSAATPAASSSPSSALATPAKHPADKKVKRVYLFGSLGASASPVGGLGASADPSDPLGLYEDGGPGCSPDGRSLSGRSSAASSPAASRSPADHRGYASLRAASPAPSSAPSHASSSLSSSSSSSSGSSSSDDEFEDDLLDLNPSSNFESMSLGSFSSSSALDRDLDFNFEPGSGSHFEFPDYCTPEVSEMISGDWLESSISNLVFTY
UniProt Q92993: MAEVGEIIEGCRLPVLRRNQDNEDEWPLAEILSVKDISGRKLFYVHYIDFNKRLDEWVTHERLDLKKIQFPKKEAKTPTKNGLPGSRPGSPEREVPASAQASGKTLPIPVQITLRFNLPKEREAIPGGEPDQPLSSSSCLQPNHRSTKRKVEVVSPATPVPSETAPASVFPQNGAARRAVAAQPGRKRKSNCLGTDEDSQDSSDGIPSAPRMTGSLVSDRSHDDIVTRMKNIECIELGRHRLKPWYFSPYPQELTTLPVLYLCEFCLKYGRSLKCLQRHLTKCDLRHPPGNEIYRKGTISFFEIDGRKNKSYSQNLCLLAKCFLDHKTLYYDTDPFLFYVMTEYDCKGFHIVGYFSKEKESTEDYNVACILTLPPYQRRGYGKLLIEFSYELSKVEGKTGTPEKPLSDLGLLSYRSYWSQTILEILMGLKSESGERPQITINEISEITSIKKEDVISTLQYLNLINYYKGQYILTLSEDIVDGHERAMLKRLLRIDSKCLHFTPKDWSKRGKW
UniProt O09106: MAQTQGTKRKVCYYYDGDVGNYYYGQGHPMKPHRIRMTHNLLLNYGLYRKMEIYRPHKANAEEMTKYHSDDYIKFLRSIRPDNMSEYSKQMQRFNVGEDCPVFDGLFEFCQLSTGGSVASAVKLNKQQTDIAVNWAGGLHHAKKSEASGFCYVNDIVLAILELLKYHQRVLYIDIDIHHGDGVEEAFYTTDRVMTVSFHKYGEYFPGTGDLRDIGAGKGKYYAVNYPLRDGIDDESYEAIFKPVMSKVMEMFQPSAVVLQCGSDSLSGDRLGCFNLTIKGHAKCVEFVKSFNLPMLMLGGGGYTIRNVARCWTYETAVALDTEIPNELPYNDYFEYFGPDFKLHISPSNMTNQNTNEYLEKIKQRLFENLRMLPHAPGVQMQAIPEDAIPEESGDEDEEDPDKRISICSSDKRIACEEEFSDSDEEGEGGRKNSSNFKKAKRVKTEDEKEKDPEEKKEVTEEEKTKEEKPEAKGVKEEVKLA
UniProt Q8CHK4: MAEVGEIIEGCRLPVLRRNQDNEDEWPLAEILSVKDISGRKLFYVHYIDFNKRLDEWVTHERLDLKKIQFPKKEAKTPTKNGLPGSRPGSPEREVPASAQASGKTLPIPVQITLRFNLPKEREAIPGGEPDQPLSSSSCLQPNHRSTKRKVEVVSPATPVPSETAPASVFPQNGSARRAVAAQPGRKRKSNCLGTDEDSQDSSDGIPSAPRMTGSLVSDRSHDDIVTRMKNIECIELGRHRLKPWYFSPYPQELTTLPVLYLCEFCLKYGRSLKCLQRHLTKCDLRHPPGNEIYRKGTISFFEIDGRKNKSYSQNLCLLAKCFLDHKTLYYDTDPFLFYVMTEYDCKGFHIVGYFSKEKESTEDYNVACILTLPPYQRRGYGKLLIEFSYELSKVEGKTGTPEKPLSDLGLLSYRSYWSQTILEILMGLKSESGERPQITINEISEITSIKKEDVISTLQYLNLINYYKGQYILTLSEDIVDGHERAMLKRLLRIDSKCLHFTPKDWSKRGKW

Assay [1] has as its target GFP-fused full-length SOX4 (UniProt Q06831). Nature of the assay: co-IP; HEK293 cells co-transfected with FLAG- and GFP-tagged constructs; lysis in 1% Triton X-100, 150 mM NaCl, 50 mM Tris-HCl pH 7.5, 0.1% SDS, 1% Nonidet P-40; precipitated with anti-GFP or anti-FLAG antibodies on protein A/G-agarose at 4 °C overnight, blotted for the other tag.
For assay [2], the target named is SOX4 (endogenous, C2C12) (mouse (endogenous in C2C12)) (UniProt Q06831). Nature of the assay: co-IP; KAT5-silenced C2C12 cells transfected with GFP-KAT5 WT or Y47A, 3 days in differentiation medium; lysates precipitated with SOX4 antibodies, bound KAT5 detected with KAT5 antibodies.
Another assay has as its target FLAG-SOX4 (UniProt Q06831). Nature of the assay: co-IP; HEK293 cells co-transfected with FLAG- and GFP-tagged constructs; lysis in 1% Triton X-100, 150 mM NaCl, 50 mM Tris-HCl pH 7.5, 0.1% SDS, 1% Nonidet P-40; precipitated with anti-GFP or anti-FLAG antibodies on protein A/G-agarose at 4 °C overnight, blotted for the other tag.
For the next assay, the target named is FLAG-KAT5 (UniProt Q92993). Described as above.
The target of assay [3] is SOX4 (endogenous, C2C12) (mouse (endogenous in C2C12)) (UniProt Q06831). Nature of the assay: co-IP; endogenous proteins; lysates of differentiating C2C12 cells (D3 in Figure 2b; indicated time points in Figure 7a) precipitated with SOX4 antibodies, blotted with KAT5 or HDAC1 antibodies.
Assay [4] has the same target. Nature of the assay: condition: only proliferating myoblasts (D0), before the induction of differentiation; co-IP; endogenous proteins; lysates of proliferating C2C12 myoblasts (D0) precipitated with SOX4 antibodies, blotted with KAT5 antibodies.

No constants are given. Whether binding was seen depends on the method and setting. Binding seen in cells or lysates may run through a third protein. Some binding calls cover weakened binding; strength is not graded here.

On to FLAG-KAT5 (from UniProt Q92993 1-513), for which the binding entry in assay [1] is recorded as “binds”. On to “GFP-KAT5 WT (in C2C12) (from UniProt Q92993 1-513)”, for which the binding entry in assay [2] is “binds”. Take “GFP-KAT5 full-length (from UniProt Q92993 1-513)”: the binding result with FLAG-SOX4 is “binds”. As to “GFP-fused full-length SOX4 (from UniProt Q06831 1-440)”, in the assay with FLAG-KAT5, the binding entry is recorded as “binds”.

Take “HDAC1 (endogenous, C2C12) (from UniProt O09106 1-482)”: in assay [3], the binding entry is listed as “binds”. Take “KAT5 (endogenous, C2C12) (from UniProt Q8CHK4 1-513)”: the binding result in assay [4] was “no binding”; in assay [3], “binds”.
